SMILES strings stand for the structures. The list is a part of this screen's results and no random one: it is rich in T/C values a quarter to a half above the control, in often repeated tests (any T/C) and in doses without a T/C. Further doses and runs are listed elsewhere. T/C gives the treated animals as a percentage of the vehicle group. Some entries give survivors of the animals treated and no T/C: the source files T/C as zero there, which appears to mark a toxic dose or a test without result, not a measured value. Some survivor counts are full or nearly so, which does not show that the dose was tolerated: survival well below the control is almost never listed, so the zero probably covers shortened survival too. Counts of survivors are from the toxicity check (mostly the fifth day) where no day follows; animals may have died later. Schedule codes are those of the source, read here as Q, the interval in days (D) or hours (H), X, the number of doses. Some schedules carry Z or #; the key to these is not given. Where survival is the endpoint, this PubChem deposit counts one and a half times the control or more as active, and values a quarter to a half above the control carry no call in these data; other NCI protocols may use other cut-offs. Additions like (4×) give the number of equal values in this list. Some T/C values are followed by the survivors on the day toxicity was checked, most often the fifth; without a count, all were alive then. Some entries were tested several times; the results are listed from low to high.

The subject of the test is L1210 leukemia ip in BDF1 mice, survival T/C. Nature of the test: NCI In Vivo Anticancer Drug Screen. Data for tumor model L1210 Leukemia (intraperitoneal) in B6D2F1 (BDF1) mice. As to conditions: T/C endpoint: mean survival time, higher T/C = longer survival.
The mark [1] stands for this setting: dose: 50.0 mg/kg/injection, schedule: Q04DX002 (ip), vehicle: saline.
Setting [2] is: dose: 100.0 mg/kg/injection, schedule: Q04DX002 (ip), vehicle: saline.
[3] abbreviates: dose: 200.0 mg/kg/injection, schedule: Q04DX002 (ip), vehicle: saline.
Where [4] appears, read: dose: 400.0 mg/kg/injection, schedule: Q04DX003 (ip), vehicle: saline.
[5] abbreviates: dose: 400.0 mg/kg/injection, schedule: Q01DX001 (ip), vehicle: saline.
[6] abbreviates: dose: 200.0 mg/kg/injection, schedule: Q01DX009 (ip), vehicle: saline with Tween-80.
Where [7] appears, read: dose: 50.0 mg/kg/injection, schedule: Q04DX003 (ip), vehicle: saline with Tween-80.
[8] abbreviates: dose: 100.0 mg/kg/injection, schedule: Q04DX003 (ip), vehicle: saline with Tween-80.
Where [9] appears, read: dose: 200.0 mg/kg/injection, schedule: Q04DX002 (ip), vehicle: saline with Tween-80.

As to `CCCCCCCCCCCCCCCCN1CCCN(CCCCCCCCCCCCCCCC)CC1`, the T/C is 88, 91, 113 % of control under setting [1]; 91, 95, 100 % of control [5 of 6 alive] under setting [2]; 89, 91 [5 of 6 alive], 95 % of control under setting [3]. For the same compound, the survivor count is given as 3 of 3 under setting [1]; 3 of 3 under setting [2]; 6 of 6 (dose: 200.0 mg/kg/injection, schedule: Q01DX009 (ip), vehicle: saline); 3 of 3 under setting [3].
For `O=C(C[n+]1ccccc1Br)c1ccc2ccccc2c1`, the survivor count runs as follows: (dose: 75.0 mg/kg/injection, schedule: Q01DX001 (ip), vehicle: other) 0 of 6; (dose: 150.0 mg/kg/injection, schedule: Q01DX001 (ip), vehicle: other) 0 of 6; (dose: 300.0 mg/kg/injection, schedule: Q01DX001 (ip), vehicle: other) 0 of 6.
In the case of `CCCCCCCCCCCC[As](=O)(O)O`, the survivor count runs as follows: (dose: 200.0 mg/kg/injection, schedule: Q01DX001 (ip), vehicle: carboxymethylcellulose (CMC)) 2 of 4; (dose: 400.0 mg/kg/injection, schedule: Q01DX001 (ip), vehicle: carboxymethylcellulose (CMC)) 0 of 4.
With `O=NN(CCCl)C(=O)NC1c2cc(Cl)ccc2-c2c(Cl)cc(Cl)cc21` (stereo not given), the T/C (dose: 15.0 mg/kg/injection, schedule: Q04DX003 (ip), vehicle: Klucel (hydroxypropylcellulose) (HPC)) was 144 % of control; the T/C (dose: 23.0 mg/kg/injection, schedule: Q04DX003 (ip), vehicle: Klucel (hydroxypropylcellulose) (HPC)) was 147 % of control; the T/C (dose: 35.0 mg/kg/injection, schedule: Q04DX003 (ip), vehicle: Klucel (hydroxypropylcellulose) (HPC)) is 127 % of control [5 of 6 alive]; the T/C (dose: 50.0 mg/kg/injection, schedule: Q04DX003 (ip), vehicle: Klucel (hydroxypropylcellulose) (HPC)) is 129 % of control; the T/C (dose: 75.0 mg/kg/injection, schedule: Q04DX003 (ip), vehicle: Klucel (hydroxypropylcellulose) (HPC)) was 146 % of control; the T/C (dose: 80.0 mg/kg/injection, schedule: Q04DX003 (ip), vehicle: Klucel (hydroxypropylcellulose) (HPC)) is 125 % of control. In addition, the T/C was 127 % of control (dose: 100.0 mg/kg/injection, schedule: Q01DX001 (ip), vehicle: Klucel (hydroxypropylcellulose) (HPC)); 137 % of control [5 of 6 alive] (dose: 100.0 mg/kg/injection, schedule: Q04DX003 (ip), vehicle: Klucel (hydroxypropylcellulose) (HPC)); 133 % of control (dose: 177.0 mg/kg/injection, schedule: Q01DX001 (ip), vehicle: Klucel (hydroxypropylcellulose) (HPC)); 130 % of control (dose: 177.0 mg/kg/injection, schedule: Q04DX003 (ip), vehicle: Klucel (hydroxypropylcellulose) (HPC)); 129 % of control (dose: 266.0 mg/kg/injection, schedule: Q01DX001 (ip), vehicle: Klucel (hydroxypropylcellulose) (HPC)); 140 % of control (dose: 266.0 mg/kg/injection, schedule: Q04DX003 (ip), vehicle: Klucel (hydroxypropylcellulose) (HPC)). The T/C (dose: 400.0 mg/kg/injection, schedule: Q01DX001 (ip), vehicle: Klucel (hydroxypropylcellulose) (HPC)) is 129 % of control.
On to `COc1cc2ccc3c(c2cc1OC)CNCC3`, for which the survivor count under setting [4] is recorded as 0 of 6.
As for `O=S(=O)(O)c1ccc(CCCCCCCl)cc1`, the survivor count (dose: 400.0 mg/kg/injection, schedule: Q04DX002 (ip), vehicle: saline) is recorded as 3 of 3.
With `Cc1cc(=O)c2cc(Cc3ccc(N)cc3)ccc2[nH]1`, the survivor count under setting [5] is given as 1 of 6.
With `CC(C)(C)P(=O)(O)O`, the survivor count under setting [6] is on record as 3 of 6 and the survivor count (dose: 400.0 mg/kg/injection, schedule: Q01DX009 (ip), vehicle: saline with Tween-80) was 1 of 6.
Consider `O=c1ccc2c(c1)oc1cccc3c(=O)c4ccccc4c2c13`, for which, under setting [6], the survivor count is on record as 1 of 3.
Consider `CC(=O)OC1CC(n2cc(C)c(=O)[nH]c2=O)OC1COP(=O)(N1CC1)N1CC1` (stereo not given), for which the survivor count under setting [2] was 2 of 4.
With `CS(=O)(=O)OCCC(=O)N1CCN(C(=O)CCOS(C)(=O)=O)CC1`, the T/C runs as follows: (dose: 12.5 mg/kg/injection, schedule: Q01DX Z (ip), vehicle: methylcellulose (MC)) 137 % of control; (dose: 15.6 mg/kg/injection, schedule: Q01DX Z (ip), vehicle: methylcellulose (MC)) 129 % of control; (dose: 25.0 mg/kg/injection, schedule: Q01DX Z (ip), vehicle: methylcellulose (MC)) 138 % of control; (dose: 50.0 mg/kg/injection, schedule: Q01DX001 (ip), vehicle: carboxymethylcellulose (CMC)) 134 [5 of 6 alive] and 137 % of control; (dose: 50.0 mg/kg/injection, schedule: Q01DX Z (ip), vehicle: methylcellulose (MC)) 158, 162, 164, 226 % of control; (dose: 62.0 mg/kg/injection, schedule: Q01DX002 (ip), vehicle: saline) 125 % of control (2×). The T/C was 142 % of control (dose: 76.0 mg/kg/injection, schedule: Q01DX Z (ip), vehicle: methylcellulose (MC)); 136 % of control (dose: 100.0 mg/kg/injection, schedule: Q01DX001 (ip), vehicle: saline); 135 % of control (dose: 100.0 mg/kg/injection, schedule: Q01DX Z (ip), vehicle: methylcellulose (MC)); 141 % of control (2×) (dose: 113.0 mg/kg/injection, schedule: Q01DX Z (ip), vehicle: methylcellulose (MC)); 130 and 139 % of control (dose: 125.0 mg/kg/injection, schedule: Q01DX002 (ip), vehicle: saline); 143 % of control (dose: 125.0 mg/kg/injection, schedule: Q01DX Z (ip), vehicle: methylcellulose (MC)). Further, the T/C by setting is: (dose: 170.0 mg/kg/injection, schedule: Q01DX Z (ip), vehicle: methylcellulose (MC)) 131 % of control; (dose: 200.0 mg/kg/injection, schedule: Q04DX003 (ip), vehicle: saline) 134 % of control. Moreover, the survivor count is listed as 6 of 6 (dose: 16.0 mg/kg/injection, schedule: Q01DX002 (ip), vehicle: saline); 6 of 7 (dose: 200.0 mg/kg/injection, schedule: Q01DX Z (ip), vehicle: methylcellulose (MC)); 6 of 6 (dose: 250.0 mg/kg/injection, schedule: Q01DX Z (ip), vehicle: methylcellulose (MC)); 6 of 7 (dose: 300.0 mg/kg/injection, schedule: Q01DX Z (ip), vehicle: methylcellulose (MC)); 6 of 7 (dose: 400.0 mg/kg/injection, schedule: Q01DX Z (ip), vehicle: methylcellulose (MC)); 3 of 4 under setting [4]. Further, under “dose: 500.0 mg/kg/injection, schedule: Q01DX Z (ip), vehicle: methylcellulose (MC)”, the survivor count is 4 of 7.
Turning to `Cc1ccc(/C=C2\CCC3C(=O)CCCC3C2=O)cc1` (stereo not given), the survivor count under setting [5] is on record as 6 of 6.
In the case of `CCN(CC)CCOC(=O)c1[nH]cnc1/N=N/N(C)C1CCCCC1`, the survivor count (dose: 400.0 mg/kg/injection, schedule: Q01DX001 (ip), vehicle: other) is recorded as 0 of 4.
Turning to `O=[N+]([O-])c1ccccc1OCCBr`, the survivor count (dose: 400.0 mg/kg/injection, schedule: Q04DX003 (ip), vehicle: Klucel (hydroxypropylcellulose) (HPC)) is listed as 6 of 6.
Consider `CC(C)c1nc2c(n1Cc1ccccc1)C=C(C(=O)c1ccccc1)S(=O)(=O)C(C(=O)c1ccccc1)=C2`, for which the T/C runs as follows: under setting [7], 86 and 95 % of control (2×); (dose: 100.0 mg/kg/injection, schedule: Q04DX002 (ip), vehicle: saline with Tween-80) 93, 95 (2×), 104 % of control; under setting [8], 93, 95, 98 % of control; under setting [9], 88, 89, 100 % of control. For the same compound, the survivor count runs as follows: under setting [7], 3 of 3; (dose: 100.0 mg/kg/injection, schedule: Q04DX002 (ip), vehicle: Klucel (hydroxypropylcellulose) (HPC)) 3 of 3; under setting [8], 3 of 3; under setting [9], 3 of 3.
With `O=C(O)CCC(=O)Nc1ccc2c(c1)B(O)OC2`, the survivor count (dose: 200.0 mg/kg/injection, schedule: Q04DX003 (ip), vehicle: Klucel (hydroxypropylcellulose) (HPC)) is given as 6 of 6.
